# Laboratory results: PubChem BioAssay AID1224830 (NIAID, 2016)
# Aim: 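Host factors that control LPS-induced TNF expression in human macrophages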 (primary screen)
# Cell system: human THP-1 monocytic leukaemia cells, TNF dual-luciferase reporter clone, PMA-differentiated to macrophage-like cells
# Reagents: siRNA pool against human genes, 50 nM
# Time to read-out: LPS for 4 h, given about 3 days after siRNA transfection
# Conditions: bacterial LPS (TLR4 ligand), 10 ng/ml
# Measurement: 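TNF firefly reporter luminescence divided by renilla, normalised to the plate median, then turned into a robust z-score for each replicate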
# Reading the numbers: TNF reporter robust z-score: higher = stronger TNF reporter response to LPS
# Call rule: 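Each well counts as active if its z-score is over 2.8 or under -1.5; controls are left without a call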
# The whole screen tested about 18,000 reagents; below is an unselected part. About 2,900 of all reagents (16%) were called active. 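Calls are made per well; low scores hint the gene aids the LPS response, high scores that it dampens it.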 Repeated entries: four replicate wells of each siRNA pool.
Gene,TNF reporter robust z-score,activity call
SUMO1 (small ubiquitin like modifier 1),0.04,inactive
SUMO1 (small ubiquitin like modifier 1),-0.33,inactive
SUMO1 (small ubiquitin like modifier 1),-0.43,inactive
SUMO1 (small ubiquitin like modifier 1),-0.03,inactive
PPP1R13L (protein phosphatase 1 regulatory subunit 13 like),0.72,inactive
PPP1R13L (protein phosphatase 1 regulatory subunit 13 like),0.27,inactive
PPP1R13L (protein phosphatase 1 regulatory subunit 13 like),0.5,inactive
PPP1R13L (protein phosphatase 1 regulatory subunit 13 like),1.24,inactive
FAM111A (FAM111 trypsin like peptidase A),-0.2,inactive
FAM111A (FAM111 trypsin like peptidase A),-0.38,inactive
FAM111A (FAM111 trypsin like peptidase A),0.71,inactive
FAM111A (FAM111 trypsin like peptidase A),0.2,inactive
"PKD2 (polycystin 2, transient receptor potential cation channel)",-0.18,inactive
"PKD2 (polycystin 2, transient receptor potential cation channel)",0.39,inactive
"PKD2 (polycystin 2, transient receptor potential cation channel)",-0.09,inactive
"PKD2 (polycystin 2, transient receptor potential cation channel)",0.44,inactive
SDE2 (spliceosome associated SDE2),-1.67,active
SDE2 (spliceosome associated SDE2),-1.34,inactive
SDE2 (spliceosome associated SDE2),-1.8,active
SDE2 (spliceosome associated SDE2),-1.49,inactive
CEP89 (centrosomal protein 89),-1.06,inactive
CEP89 (centrosomal protein 89),-0.64,inactive
CEP89 (centrosomal protein 89),-1.35,inactive
CEP89 (centrosomal protein 89),-1.82,active
FAAP100 (FA core complex associated protein 100),2.49,inactive
FAAP100 (FA core complex associated protein 100),3.08,active
FAAP100 (FA core complex associated protein 100),1.92,inactive
FAAP100 (FA core complex associated protein 100),2.33,inactive
SETD3,0.32,inactive
SETD3,0.5,inactive
SETD3,-0.65,inactive
SETD3,-0.8,inactive
RND2 (Rho family GTPase 2),-1.73,active
RND2 (Rho family GTPase 2),-1.69,active
RND2 (Rho family GTPase 2),-1.78,active
RND2 (Rho family GTPase 2),-1.54,active
ALS2 (alsin Rho guanine nucleotide exchange factor ALS2),-1.73,active
ALS2 (alsin Rho guanine nucleotide exchange factor ALS2),-1.56,active
ALS2 (alsin Rho guanine nucleotide exchange factor ALS2),-1.77,active
ALS2 (alsin Rho guanine nucleotide exchange factor ALS2),-0.99,inactive

Sorted by “TNF reporter robust z-score” (high to low): 16 of the entries above
Gene,TNF reporter robust z-score,activity call
FAAP100 (FA core complex associated protein 100),3.08,active
FAAP100 (FA core complex associated protein 100),2.49,inactive
FAAP100 (FA core complex associated protein 100),2.33,inactive
FAAP100 (FA core complex associated protein 100),1.92,inactive
SETD3,0.5,inactive
SETD3,0.32,inactive
CEP89 (centrosomal protein 89),-0.64,inactive
SETD3,-0.65,inactive
SETD3,-0.8,inactive
CEP89 (centrosomal protein 89),-1.06,inactive
CEP89 (centrosomal protein 89),-1.35,inactive
SDE2 (spliceosome associated SDE2),-1.49,inactive
RND2 (Rho family GTPase 2),-1.69,active
RND2 (Rho family GTPase 2),-1.73,active
SDE2 (spliceosome associated SDE2),-1.8,active
CEP89 (centrosomal protein 89),-1.82,active

Continued.
Gene,TNF reporter robust z-score,activity call
RIOX2 (ribosomal oxygenase 2),-0.44,inactive
RIOX2 (ribosomal oxygenase 2),0.69,inactive
RIOX2 (ribosomal oxygenase 2),-0.26,inactive
RIOX2 (ribosomal oxygenase 2),-0.8,inactive
BRMS1L (BRMS1 like transcriptional repressor),0.66,inactive
BRMS1L (BRMS1 like transcriptional repressor),-0.02,inactive
BRMS1L (BRMS1 like transcriptional repressor),-0.81,inactive
BRMS1L (BRMS1 like transcriptional repressor),1.91,inactive
LINC01465 (long independently transcribed non-coding RNA 1465),0.16,inactive
LINC01465 (long independently transcribed non-coding RNA 1465),0.49,inactive
LINC01465 (long independently transcribed non-coding RNA 1465),0.79,inactive
LINC01465 (long independently transcribed non-coding RNA 1465),1.48,inactive
DNAJB11 (DnaJ heat shock protein family (Hsp40) member B11),1.58,inactive
DNAJB11 (DnaJ heat shock protein family (Hsp40) member B11),2.63,inactive
DNAJB11 (DnaJ heat shock protein family (Hsp40) member B11),-0.25,inactive
DNAJB11 (DnaJ heat shock protein family (Hsp40) member B11),2.26,inactive
R3HDML (R3H domain containing like),-0.18,inactive
R3HDML (R3H domain containing like),-0.89,inactive
R3HDML (R3H domain containing like),-0.36,inactive
R3HDML (R3H domain containing like),0.16,inactive
RIPOR3 (RIPOR family member 3),-0.96,inactive
RIPOR3 (RIPOR family member 3),1.18,inactive
RIPOR3 (RIPOR family member 3),0.77,inactive
RIPOR3 (RIPOR family member 3),2.43,inactive
COA7 (cytochrome c oxidase assembly factor 7),1.73,inactive
COA7 (cytochrome c oxidase assembly factor 7),1.41,inactive
COA7 (cytochrome c oxidase assembly factor 7),-0.12,inactive
COA7 (cytochrome c oxidase assembly factor 7),1.15,inactive
KRT20 (keratin 20),-1.35,inactive
KRT20 (keratin 20),-0.45,inactive
KRT20 (keratin 20),-0.81,inactive
KRT20 (keratin 20),0.09,inactive
RMND5A (required for meiotic nuclear division 5 homolog A),-0.56,inactive
RMND5A (required for meiotic nuclear division 5 homolog A),-0.36,inactive
RMND5A (required for meiotic nuclear division 5 homolog A),-1.18,inactive
RMND5A (required for meiotic nuclear division 5 homolog A),-0.37,inactive
CEP83 (centrosomal protein 83),-0.44,inactive
CEP83 (centrosomal protein 83),-0.6,inactive
CEP83 (centrosomal protein 83),-0.95,inactive
CEP83 (centrosomal protein 83),-1.34,inactive
BIRC2 (baculoviral IAP repeat containing 2),1.13,inactive
BIRC2 (baculoviral IAP repeat containing 2),0.27,inactive
BIRC2 (baculoviral IAP repeat containing 2),1.29,inactive
BIRC2 (baculoviral IAP repeat containing 2),0.74,inactive
MARCHF9 (membrane associated ring-CH-type finger 9),2.6,inactive
MARCHF9 (membrane associated ring-CH-type finger 9),-1.33,inactive
MARCHF9 (membrane associated ring-CH-type finger 9),1.03,inactive
MARCHF9 (membrane associated ring-CH-type finger 9),2.58,inactive
ZFYVE1 (zinc finger FYVE-type containing 1),-0.47,inactive
ZFYVE1 (zinc finger FYVE-type containing 1),0.16,inactive
ZFYVE1 (zinc finger FYVE-type containing 1),-0.59,inactive
ZFYVE1 (zinc finger FYVE-type containing 1),-0.14,inactive
CDPF1 (cysteine rich DPF motif domain containing 1),0.92,inactive
CDPF1 (cysteine rich DPF motif domain containing 1),1.52,inactive
CDPF1 (cysteine rich DPF motif domain containing 1),0.83,inactive
CDPF1 (cysteine rich DPF motif domain containing 1),1.34,inactive
SLC41A1,2.2,inactive
SLC41A1,2.57,inactive
SLC41A1,1.55,inactive
SLC41A1,2.37,inactive
CCDC22 (CCC complex scaffolding subunit CCDC22),-0.09,inactive
CCDC22 (CCC complex scaffolding subunit CCDC22),-0.41,inactive
CCDC22 (CCC complex scaffolding subunit CCDC22),-0.4,inactive
CCDC22 (CCC complex scaffolding subunit CCDC22),0.45,inactive
GALP (galanin like peptide),-0.47,inactive
GALP (galanin like peptide),-0.36,inactive
GALP (galanin like peptide),0.35,inactive
RFPL2 (ret finger protein like 2),-1.64,active
RFPL2 (ret finger protein like 2),-0.92,inactive
RFPL2 (ret finger protein like 2),-0.78,inactive
RFPL2 (ret finger protein like 2),-0.44,inactive
